Results as given in article PMC8395203.
These are yes or no findings as the source states them, for the method shown. In cells and extracts the contact can be indirect. Some results given as binding are weak or reduced against the parent protein; the word gives no strength. For some of these results: Where a sequence is shown, tags or fusion partners need not be part of it. Each block holds one molecule with its values, some of them ahead of it.

By UniProt entry, the sequences of proteins in these tests, tags left out.
UniProt Q96GD4: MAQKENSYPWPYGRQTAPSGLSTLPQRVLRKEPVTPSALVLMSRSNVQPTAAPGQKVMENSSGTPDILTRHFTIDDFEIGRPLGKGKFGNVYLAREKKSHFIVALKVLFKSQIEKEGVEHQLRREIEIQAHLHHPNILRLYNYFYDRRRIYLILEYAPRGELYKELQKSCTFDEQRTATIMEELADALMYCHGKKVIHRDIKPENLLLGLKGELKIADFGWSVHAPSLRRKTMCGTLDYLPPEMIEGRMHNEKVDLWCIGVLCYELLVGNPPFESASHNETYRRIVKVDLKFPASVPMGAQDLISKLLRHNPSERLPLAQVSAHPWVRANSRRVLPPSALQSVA

Experiments:
[1] = molecular target: T1, USP48 (endogenous) (human (endogenous in HeLa)) (UniProt Q86UV5); assay: co-IP; endogenous IP from HeLa lysates (about 5 mg) with USP48 or Aurora B antibodies, protein A/G agarose beads, immunoblot; cells treated with MG132 for 8 h before harvesting
T1 sequence: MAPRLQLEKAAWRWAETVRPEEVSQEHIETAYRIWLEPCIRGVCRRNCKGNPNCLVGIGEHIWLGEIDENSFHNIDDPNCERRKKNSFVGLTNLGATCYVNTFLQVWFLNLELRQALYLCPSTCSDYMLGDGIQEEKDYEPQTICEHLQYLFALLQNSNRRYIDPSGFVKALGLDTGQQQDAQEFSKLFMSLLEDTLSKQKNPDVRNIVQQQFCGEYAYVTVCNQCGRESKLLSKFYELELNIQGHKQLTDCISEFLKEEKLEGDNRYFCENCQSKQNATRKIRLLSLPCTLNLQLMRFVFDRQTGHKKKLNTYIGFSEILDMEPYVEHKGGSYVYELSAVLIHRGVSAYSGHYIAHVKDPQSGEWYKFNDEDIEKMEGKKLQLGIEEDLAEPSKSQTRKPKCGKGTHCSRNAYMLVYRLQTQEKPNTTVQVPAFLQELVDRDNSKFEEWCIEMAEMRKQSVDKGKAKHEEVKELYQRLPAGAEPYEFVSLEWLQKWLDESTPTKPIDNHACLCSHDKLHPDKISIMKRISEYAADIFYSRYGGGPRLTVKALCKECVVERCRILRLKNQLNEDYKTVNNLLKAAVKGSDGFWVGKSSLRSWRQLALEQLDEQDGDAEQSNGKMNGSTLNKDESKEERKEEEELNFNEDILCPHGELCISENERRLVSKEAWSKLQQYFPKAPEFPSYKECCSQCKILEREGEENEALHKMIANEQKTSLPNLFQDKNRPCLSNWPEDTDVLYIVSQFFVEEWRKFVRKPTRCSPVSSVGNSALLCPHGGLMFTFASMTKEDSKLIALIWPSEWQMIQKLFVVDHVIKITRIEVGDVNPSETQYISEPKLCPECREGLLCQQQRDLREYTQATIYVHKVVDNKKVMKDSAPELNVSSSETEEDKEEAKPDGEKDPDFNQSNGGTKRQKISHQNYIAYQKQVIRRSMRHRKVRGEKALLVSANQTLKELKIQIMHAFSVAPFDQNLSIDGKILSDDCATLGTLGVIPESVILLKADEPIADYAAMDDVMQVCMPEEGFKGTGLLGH

[2] = molecular target: T2, Flag-USP48 (human) (UniProt Q86UV5); assay: co-IP; HEK293 cells co-transfected with Flag-USP48 and Myc-Aurora B, lysed in RIPA buffer (50 mM Tris-HCl pH 7.6, 1% Triton X-100, 150 mM NaCl, 0.1% SDS, 1% sodium deoxycholate, 2 mM EDTA); IP with anti-Flag or anti-Myc at 4 °C overnight, immunoblot
T2 sequence: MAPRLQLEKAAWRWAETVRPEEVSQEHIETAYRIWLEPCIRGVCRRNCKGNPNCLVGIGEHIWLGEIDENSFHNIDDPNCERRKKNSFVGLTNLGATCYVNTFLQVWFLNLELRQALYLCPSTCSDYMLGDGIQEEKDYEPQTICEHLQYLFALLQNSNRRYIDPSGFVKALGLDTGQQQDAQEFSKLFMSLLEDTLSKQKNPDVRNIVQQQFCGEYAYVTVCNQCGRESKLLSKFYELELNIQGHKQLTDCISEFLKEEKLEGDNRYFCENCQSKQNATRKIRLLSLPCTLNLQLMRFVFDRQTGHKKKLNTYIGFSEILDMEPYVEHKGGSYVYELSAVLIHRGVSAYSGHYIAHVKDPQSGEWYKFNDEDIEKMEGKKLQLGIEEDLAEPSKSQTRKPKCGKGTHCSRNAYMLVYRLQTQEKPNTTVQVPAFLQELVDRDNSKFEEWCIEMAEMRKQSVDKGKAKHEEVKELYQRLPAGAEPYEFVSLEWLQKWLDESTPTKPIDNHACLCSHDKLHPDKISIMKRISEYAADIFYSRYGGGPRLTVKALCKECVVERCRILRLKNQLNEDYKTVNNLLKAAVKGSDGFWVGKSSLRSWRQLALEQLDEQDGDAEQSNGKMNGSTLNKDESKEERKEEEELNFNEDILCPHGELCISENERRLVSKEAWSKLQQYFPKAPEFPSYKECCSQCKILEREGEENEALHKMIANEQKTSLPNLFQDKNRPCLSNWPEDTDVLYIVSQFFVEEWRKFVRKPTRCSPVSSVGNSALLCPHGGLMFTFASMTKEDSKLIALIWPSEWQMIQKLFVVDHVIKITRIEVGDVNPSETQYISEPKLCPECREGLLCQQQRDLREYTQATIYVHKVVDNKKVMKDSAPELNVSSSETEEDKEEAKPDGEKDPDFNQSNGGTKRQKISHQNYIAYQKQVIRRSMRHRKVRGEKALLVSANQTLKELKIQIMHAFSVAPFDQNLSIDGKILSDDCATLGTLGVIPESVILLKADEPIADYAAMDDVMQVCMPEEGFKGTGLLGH

[3] = molecular target: Aurora B (endogenous) (human (endogenous in HeLa)) (UniProt Q96GD4); assay: co-IP; endogenous IP from HeLa lysates (about 5 mg) with USP48 or Aurora B antibodies, protein A/G agarose beads, immunoblot; cells treated with MG132 for 8 h before harvesting
[4] = molecular target: Myc-Aurora B (human) (UniProt Q96GD4); assay: co-IP; HEK293 cells co-transfected with Flag-USP48 and Myc-Aurora B, lysed in RIPA buffer (50 mM Tris-HCl pH 7.6, 1% Triton X-100, 150 mM NaCl, 0.1% SDS, 1% sodium deoxycholate, 2 mM EDTA); IP with anti-Flag or anti-Myc at 4 °C overnight, immunoblot

Molecule: Aurora B (endogenous) (from UniProt Q96GD4 1-344) (enzyme)
binding [1]: binds

B1: USP48 (endogenous) (enzyme, UniProt Q86UV5 1-1035)
chain: MAPRLQLEKAAWRWAETVRPEEVSQEHIETAYRIWLEPCIRGVCRRNCKGNPNCLVGIGEHIWLGEIDENSFHNIDDPNCERRKKNSFVGLTNLGATCYVNTFLQVWFLNLELRQALYLCPSTCSDYMLGDGIQEEKDYEPQTICEHLQYLFALLQNSNRRYIDPSGFVKALGLDTGQQQDAQEFSKLFMSLLEDTLSKQKNPDVRNIVQQQFCGEYAYVTVCNQCGRESKLLSKFYELELNIQGHKQLTDCISEFLKEEKLEGDNRYFCENCQSKQNATRKIRLLSLPCTLNLQLMRFVFDRQTGHKKKLNTYIGFSEILDMEPYVEHKGGSYVYELSAVLIHRGVSAYSGHYIAHVKDPQSGEWYKFNDEDIEKMEGKKLQLGIEEDLAEPSKSQTRKPKCGKGTHCSRNAYMLVYRLQTQEKPNTTVQVPAFLQELVDRDNSKFEEWCIEMAEMRKQSVDKGKAKHEEVKELYQRLPAGAEPYEFVSLEWLQKWLDESTPTKPIDNHACLCSHDKLHPDKISIMKRISEYAADIFYSRYGGGPRLTVKALCKECVVERCRILRLKNQLNEDYKTVNNLLKAAVKGSDGFWVGKSSLRSWRQLALEQLDEQDGDAEQSNGKMNGSTLNKDESKEERKEEEELNFNEDILCPHGELCISENERRLVSKEAWSKLQQYFPKAPEFPSYKECCSQCKILEREGEENEALHKMIANEQKTSLPNLFQDKNRPCLSNWPEDTDVLYIVSQFFVEEWRKFVRKPTRCSPVSSVGNSALLCPHGGLMFTFASMTKEDSKLIALIWPSEWQMIQKLFVVDHVIKITRIEVGDVNPSETQYISEPKLCPECREGLLCQQQRDLREYTQATIYVHKVVDNKKVMKDSAPELNVSSSETEEDKEEAKPDGEKDPDFNQSNGGTKRQKISHQNYIAYQKQVIRRSMRHRKVRGEKALLVSANQTLKELKIQIMHAFSVAPFDQNLSIDGKILSDDCATLGTLGVIPESVILLKADEPIADYAAMDDVMQVCMPEEGFKGTGLLGH
binding [3]: binds

The next lines start with the values.

binding [2]: binds
Molecule: Myc-Aurora B (from UniProt Q96GD4 1-344) (enzyme)

binding [4]: binds
B2: Flag-USP48 (enzyme, UniProt Q86UV5 1-1035)
chain: MAPRLQLEKAAWRWAETVRPEEVSQEHIETAYRIWLEPCIRGVCRRNCKGNPNCLVGIGEHIWLGEIDENSFHNIDDPNCERRKKNSFVGLTNLGATCYVNTFLQVWFLNLELRQALYLCPSTCSDYMLGDGIQEEKDYEPQTICEHLQYLFALLQNSNRRYIDPSGFVKALGLDTGQQQDAQEFSKLFMSLLEDTLSKQKNPDVRNIVQQQFCGEYAYVTVCNQCGRESKLLSKFYELELNIQGHKQLTDCISEFLKEEKLEGDNRYFCENCQSKQNATRKIRLLSLPCTLNLQLMRFVFDRQTGHKKKLNTYIGFSEILDMEPYVEHKGGSYVYELSAVLIHRGVSAYSGHYIAHVKDPQSGEWYKFNDEDIEKMEGKKLQLGIEEDLAEPSKSQTRKPKCGKGTHCSRNAYMLVYRLQTQEKPNTTVQVPAFLQELVDRDNSKFEEWCIEMAEMRKQSVDKGKAKHEEVKELYQRLPAGAEPYEFVSLEWLQKWLDESTPTKPIDNHACLCSHDKLHPDKISIMKRISEYAADIFYSRYGGGPRLTVKALCKECVVERCRILRLKNQLNEDYKTVNNLLKAAVKGSDGFWVGKSSLRSWRQLALEQLDEQDGDAEQSNGKMNGSTLNKDESKEERKEEEELNFNEDILCPHGELCISENERRLVSKEAWSKLQQYFPKAPEFPSYKECCSQCKILEREGEENEALHKMIANEQKTSLPNLFQDKNRPCLSNWPEDTDVLYIVSQFFVEEWRKFVRKPTRCSPVSSVGNSALLCPHGGLMFTFASMTKEDSKLIALIWPSEWQMIQKLFVVDHVIKITRIEVGDVNPSETQYISEPKLCPECREGLLCQQQRDLREYTQATIYVHKVVDNKKVMKDSAPELNVSSSETEEDKEEAKPDGEKDPDFNQSNGGTKRQKISHQNYIAYQKQVIRRSMRHRKVRGEKALLVSANQTLKELKIQIMHAFSVAPFDQNLSIDGKILSDDCATLGTLGVIPESVILLKADEPIADYAAMDDVMQVCMPEEGFKGTGLLGH
